Experimental data taken from PubChem BioAssay AID256 (DTP/NCI, 2004).
The list shows only some results of the screen, not a fair sample: it gathers tests that were run many times, whatever their T/C, doses with no T/C, and many T/C values between a quarter and a half above the control. Other doses and runs of a compound stand elsewhere. T/C is the treated group as % of the vehicle group. Some entries give survivors of the animals treated and no T/C: the source holds a T/C of zero for them, seemingly a mark for toxic or unscored doses. Some survivor counts are full or nearly so, which does not show that the dose was tolerated: the source hardly ever lists a survival T/C far under the control, and the zero likely stands for such cases as well. Survivors were counted at the toxicity check, usually on the fifth day, unless a day is given; later deaths do not show. Schedules are NCI's codes, read here as Q, the interval in days (D) or hours (H), X, the number of doses.

Test system: CD2F1 mice, L1210 leukemia ip, survival T/C
Test: NCI In Vivo Anticancer Drug Screen. Data for tumor model L1210 Leukemia (intraperitoneal) in CD2F1 (CDF1) mice
Conditions: higher T/C = longer survival
Method in brief: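 Antitumor effect is scored in animals hosting a serially transplanted tumor. Values compare compound-dosed animals against vehicle-only controls as a simple quotient.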

`C1CCC(N2CCOCC2)CC1` was tested. Which survivor count (T/C endpoint: mean survival time, dose: 100.0 mg/kg/injection, schedule: Q04DX002 (ip), vehicle: saline) did it give?
Its survivor count is 0 of 3.

For `CC/C(=N\[N+](C)(C)C)c1ccccc1`, which survivor count (T/C endpoint: mean survival time, dose: 75.0 mg/kg/injection, schedule: Q01DX009 (ip), vehicle: saline) is on record?
The survivor count was 2 of 6.

Which results are given for `CCCCCCCCCCCCCCCCOc1ccc(OCCCCCCCCC)cc1`?
survivor count (T/C endpoint: mean survival time, dose: 100.0 mg/kg/injection, schedule: Q01DX001 (ip), vehicle: saline with Tween-80): 6 of 6; survivor count (T/C endpoint: mean survival time, dose: 200.0 mg/kg/injection, schedule: Q01DX001 (ip), vehicle: saline with Tween-80): 6 of 6

For `Nc1[nH]c(=S)[nH]c(=O)c1N`, which survivor count (T/C endpoint: mean survival time, dose: 100.0 mg/kg/injection, schedule: Q04DX002 (ip), vehicle: saline with Tween-80) is on record?
Its survivor count is 1 of 3.

What about the survivor count (T/C endpoint: mean survival time, dose: 200.0 mg/kg/injection, schedule: Q04DX002 (ip), vehicle: saline with Tween-80) of the same compound?
The survivor count was 0 of 3.

And the survivor count (T/C endpoint: mean survival time, dose: 400.0 mg/kg/injection, schedule: Q04DX002 (ip), vehicle: saline with Tween-80)?
Its survivor count is 0 of 3.

How did the survivor count (T/C endpoint: mean survival time, dose: 200.0 mg/kg/injection, schedule: Q04DX003 (ip), vehicle: saline with Tween-80) turn out when `c1ccc(-c2nncnn2)cc1` was run?
Its survivor count is 1 of 6.

What about the survivor count (T/C endpoint: mean survival time, dose: 400.0 mg/kg/injection, schedule: Q04DX003 (ip), vehicle: saline with Tween-80) of the same compound?
Its survivor count is 0 of 6.

With `N#CCN(CC#N)CC#N` as the compound, how does the survivor count (T/C endpoint: mean survival time, dose: 25.0 mg/kg/injection, schedule: Q04DX003 (ip), vehicle: saline with Tween-80) read?
Its survivor count is 4 of 6.

And the survivor count (T/C endpoint: mean survival time, dose: 50.0 mg/kg/injection, schedule: Q04DX003 (ip), vehicle: saline with Tween-80)?
The survivor count was 0 of 6.

What about the survivor count (T/C endpoint: mean survival time, dose: 100.0 mg/kg/injection, schedule: Q04DX003 (ip), vehicle: saline with Tween-80) of the same compound?
The survivor count was 0 of 6.

How did the survivor count (T/C endpoint: mean survival time, dose: 100.0 mg/kg/injection, schedule: Q01DX009 (ip), vehicle: water) turn out when `Nc1nc(N)c2c(n1)NCN(Cc1ccc(Cl)c(Cl)c1)C2` was run?
The survivor count was 3 of 6.

Which survivor count (T/C endpoint: median survival time, dose: 400.0 mg/kg/injection, schedule: Q01DX009 (ip), vehicle: saline with Tween-80) does the source give for `CCCCCCNc1nc(NCCCCCC)c2[nH]c(NCCCCCC)nc2n1` here?
Its survivor count is 0 of 6.

Which survivor count (T/C endpoint: median survival time, dose: 4.0 mg/kg/injection, schedule: Q01DX005 (ip), vehicle: Klucel (hydroxypropylcellulose) (HPC)) does the source give for `C/C=C(\C)C(=O)OC1C(C)=C2C(C1OC(=O)CCCCC)C(C)(OC(C)=O)CC(OC(=O)CCC)C1(O)C2OC(=O)C1(C)O` (stereo unspecified) here?
The survivor count was 0 of 6.

And the survivor count (T/C endpoint: median survival time, dose: 8.0 mg/kg/injection, schedule: Q01DX005 (ip), vehicle: Klucel (hydroxypropylcellulose) (HPC))?
The survivor count was 0 of 6.
